# From the supplement of paper PMC3334620
# In all, about 33,000 sequences were measured (“E-score (-0.5 to 0.5)”: median about -0.015, highest 2% from about 0.3 on). The list shows a part of the results.
# Biological target: T1, Abf1 (UniProt P14164)
# T1 sequence: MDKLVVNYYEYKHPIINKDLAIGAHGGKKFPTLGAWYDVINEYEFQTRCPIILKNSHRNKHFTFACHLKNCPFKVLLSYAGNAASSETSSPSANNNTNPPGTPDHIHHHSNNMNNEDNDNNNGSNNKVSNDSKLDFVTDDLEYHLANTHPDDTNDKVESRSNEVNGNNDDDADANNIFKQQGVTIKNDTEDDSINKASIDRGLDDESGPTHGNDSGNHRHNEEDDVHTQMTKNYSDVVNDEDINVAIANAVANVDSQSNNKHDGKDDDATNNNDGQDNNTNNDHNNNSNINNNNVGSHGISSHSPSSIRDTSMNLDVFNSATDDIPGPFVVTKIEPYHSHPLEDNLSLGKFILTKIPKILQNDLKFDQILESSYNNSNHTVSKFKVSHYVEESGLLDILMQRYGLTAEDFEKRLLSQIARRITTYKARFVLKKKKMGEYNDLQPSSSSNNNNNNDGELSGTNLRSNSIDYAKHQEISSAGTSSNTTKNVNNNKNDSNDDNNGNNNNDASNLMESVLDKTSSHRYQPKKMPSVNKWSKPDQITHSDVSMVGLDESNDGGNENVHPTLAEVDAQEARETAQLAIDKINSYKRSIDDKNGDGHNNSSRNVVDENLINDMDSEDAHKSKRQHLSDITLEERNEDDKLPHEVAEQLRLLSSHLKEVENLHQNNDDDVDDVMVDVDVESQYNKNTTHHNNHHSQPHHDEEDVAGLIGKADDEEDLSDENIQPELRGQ
# Test: PBM E-score (8-mer binding enrichment) (E-score (-0.5 to 0.5)); higher = stronger / more preferred TF binding
# Conditions: protein concentration: 200 nM; construct: GST-full length
# Method in brief: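 Each ungapped eight-base word and its reverse complement, pooled, received an E-score from the Universal PBM Analysis Suite. Underlying scans, normalised with masliner, recorded fluorescent anti-GST bound to GST-tagged yeast transcription factors. These were applied at about 100-200 nM to universal all-10-mer Agilent arrays double-stranded by primer extension.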
row,Sequence,PBM E-score
1,AAGTGGAC,0.0527
2,AATAAATT,0.313
3,TGCTATAA,-0.00372
4,AAGGGGAC,0.0257
5,ACATGCGC,0.193
6,ATCTACAA,0.0726
7,CACCATGG,-0.132
8,GTAATCTA,0.119
9,ACGCGCTC,0.0329
10,ATCAGGAG,-0.127
11,AGCGCCAC,-0.0429
12,ACTTAACC,0.0363
13,GAGCTCCC,-0.216
14,TGAAGTAA,0.06
15,AAAAGATC,0.0313
16,TACCTGGA,0.0454
17,CGGCGACC,-0.0958
18,AGCTTCAC,-0.0981
19,CTTATTCC,-0.0725
20,ATAGAGAC,0.0179
21,ATACAGAC,-0.0512
22,CGAGTAGC,0.0908
23,GTAAGTAA,0.0481
24,GAGATAAC,0.138
25,GTAGATCA,0.319

row,Sequence,PBM E-score
1,ACTCACTA,0.132
2,ATCGGCAG,-0.163
3,ACAAACGG,0.225
4,AGAGCTCC,-0.15
5,GTAGGCTA,-0.129
6,ATACAACA,0.0798
7,CGTTCGTC,0.358
8,ATAGTGGA,-0.0758
9,CATCGTGA,0.135
10,CTTTAGCC,-0.169
11,GGCCCCTA,-0.274
12,CTGTGAAC,0.0459
13,CCCTTATC,0.0862
14,TAGGTCGA,-0.0184
15,ATCAATAC,0.178
16,GAGATGCC,0.0132
17,GACAACGA,0.135
18,AGTTTCAG,-0.0696
19,ACCGGTCT,-0.212
20,ATGAAAAA,0.0991
21,AAGGACGC,-0.094
22,CCGGACCC,-0.239
23,CAGTTAAG,0.0216
24,ACGGCTAC,0.0914
25,CGTGAAGC,0.0234

# Part of the list above, with bars between the fields:
row | Sequence | PBM E-score
11 | GGCCCCTA | -0.274
12 | CTGTGAAC | 0.0459
13 | CCCTTATC | 0.0862
14 | TAGGTCGA | -0.0184
15 | ATCAATAC | 0.178

# Following part

row,Sequence,PBM E-score
1,TGAGGAAA,-0.0382
2,ACCAACGT,0.143
3,AAGAGTAG,0.00631
4,ACATTCGC,-0.039
5,AAGCGCGT,-0.0852
6,AAGTGGGT,-0.0525
7,GGCAGACA,-0.0298
8,GCCCCAAA,-0.139
9,TCGCTTCA,0.078
10,ATAACGTC,0.0479
11,GCTTGAAA,0.0038
12,GCGCTTCC,-0.046
13,ACCGCAAG,0.0196
14,CTTTGTCA,0.271
15,AGACTTCC,-0.177
16,AGGAATGG,-0.188
17,GATCATAC,0.226
18,CGACCTAG,0.0412
19,AATACACC,0.0439
20,ACATGTGA,-0.0437
21,CTGTTGAC,-0.189
22,CAGGGTGG,-0.175
23,ACTTTATA,0.213
24,ATACAAGC,-0.0742
25,CGACTGGC,-0.172

# Some of the entries so far, with tabs.
row	Sequence	PBM E-score
4	AAGGGGAC	0.0257
5	ACATGCGC	0.193

# More results:

row,Sequence,PBM E-score
1,GATGACCA,0.191
2,ATTCTACC,0.0177
3,CACATATC,0.0968
4,ATCTGAGA,-0.0403
5,CAAAATAA,0.0118
6,AGATACGC,-0.0877
7,ACGTCCTC,-0.0913
8,ATGTTCGA,0.0272
9,ATTGACTC,-0.0611
10,GCTCGGTA,-0.0852
11,AGCATAAC,-0.0378
12,TACGGATA,0.215
13,GTCAGGGA,-0.148
14,GCGCACAC,-0.204
15,CGCAACGC,-0.00976
16,GGGGATAC,-0.0778
17,CAAGTCAC,0.207
18,GAGCACCC,-0.153
19,ACAGTTTA,-0.0111
20,CAGATTTC,-0.127
21,GGCTTTCA,0.116
22,GTTTCACA,-0.0433
23,CGTTGGAG,0.0605
24,CGGATTAC,0.091
25,CCTAGAGC,-0.219

row,Sequence,PBM E-score
1,CACGCCTA,0.0363
2,ACGCACAA,-0.146
3,AGTCAAAG,-0.0222
4,AATGAAGG,-0.0899
5,GCCGCCCA,-0.201
6,GACTGCCA,-0.0698
7,ACGTGCCC,0.0374
8,AACAAACG,-0.0162
9,GCTTCCTA,0.00478
10,AGTCTGGA,-0.205
11,CCTCGATA,0.0399
12,ATGAAAGC,0.132
13,CAGAGAAC,-0.0886
14,TTAGGGAA,0.0813
15,AGGCACGA,0.11
16,TCTCTACA,-0.00964
17,GCGGTCCC,-0.0918
18,GACTAGTA,-0.0512
19,ACCCCCCG,-0.297
20,ACTATTTC,0.13
21,AATCAGAA,-0.0931
22,AATTTGAG,-0.0599
23,ATCTCCAT,0.0303
24,GGACTGAC,-0.252
25,ATTTATTA,0.309

row,Sequence,PBM E-score
1,TTTGAAAA,0.111
2,ACAAGCTC,-0.252
3,CGAAGGAC,0.0868
4,GGCCAGCC,-0.21
5,CACTGTCG,0.0343
6,TGGACAAA,0.0107
7,CGTTGCAC,0.0663
8,GATATCAC,0.414
9,CCGTTTCG,0.135
10,CGCACCGA,-0.137
11,ACAGTTCG,0.00858
12,AATTCGAC,-0.189
13,CCACTGAC,-0.179
14,ACCCTACC,-0.0929
15,TACGATGA,0.293
16,AGAGCGTA,-0.176
17,CTTGTGCA,-0.034
18,CCTGTAGC,-0.368
19,GCCTTAAC,-0.156
20,CTCTGGGC,-0.21
21,CGAGGCGC,0.141
22,AACACCGG,-0.0591
23,AACCGGGG,-0.212
24,AGGGGTAA,-0.167
25,AGTGAGCA,-0.0139

row,Sequence,PBM E-score
1,ATCGAGAG,-0.144
2,CGACGCGC,0.108
3,CGAACCGC,0.0253
4,TATCATAA,0.217
5,GACGCGCA,-0.133
6,AATGACGC,0.106
7,TGTGAAAA,0.213
8,ACATATAG,0.0658
9,AAGGAACT,-0.184
10,CTCCACCC,-0.317
11,GATTGCAC,0.19
12,CGAATTGA,0.126
13,AAGATGGT,-0.107
14,ACAGGACT,-0.152
15,GATAGATA,0.0466
16,GATCAGGA,0.0156
17,ACGTAAAG,-0.0198
18,AAACGACA,0.321
19,CCTCTGCG,-0.123
20,AGTATTGA,0.0838
21,CGCGTGTA,0.0277
22,ACGCGTCG,0.12
